Compound in the assay: CC1Cc2ccccc2N1C(=O)C1CCCN(C1)C(=O)CCl (mixture of isomers) [TRIM25 ligand 11 (diastereomer mixture)]
Nature of the assay: probe-labelled cysteine peptide fold change vs DMSO (competition) (log2 fold change); higher = less target engagement (more negative = stronger competition). The following applies: THP-1, incubation time: 4 h.

Protein sequences, listed by entry. Tags and fused reporters are not part of them. Lines headed by an entry give the natural chain unless they say otherwise; changes in a name come on top.
UniProt O94964: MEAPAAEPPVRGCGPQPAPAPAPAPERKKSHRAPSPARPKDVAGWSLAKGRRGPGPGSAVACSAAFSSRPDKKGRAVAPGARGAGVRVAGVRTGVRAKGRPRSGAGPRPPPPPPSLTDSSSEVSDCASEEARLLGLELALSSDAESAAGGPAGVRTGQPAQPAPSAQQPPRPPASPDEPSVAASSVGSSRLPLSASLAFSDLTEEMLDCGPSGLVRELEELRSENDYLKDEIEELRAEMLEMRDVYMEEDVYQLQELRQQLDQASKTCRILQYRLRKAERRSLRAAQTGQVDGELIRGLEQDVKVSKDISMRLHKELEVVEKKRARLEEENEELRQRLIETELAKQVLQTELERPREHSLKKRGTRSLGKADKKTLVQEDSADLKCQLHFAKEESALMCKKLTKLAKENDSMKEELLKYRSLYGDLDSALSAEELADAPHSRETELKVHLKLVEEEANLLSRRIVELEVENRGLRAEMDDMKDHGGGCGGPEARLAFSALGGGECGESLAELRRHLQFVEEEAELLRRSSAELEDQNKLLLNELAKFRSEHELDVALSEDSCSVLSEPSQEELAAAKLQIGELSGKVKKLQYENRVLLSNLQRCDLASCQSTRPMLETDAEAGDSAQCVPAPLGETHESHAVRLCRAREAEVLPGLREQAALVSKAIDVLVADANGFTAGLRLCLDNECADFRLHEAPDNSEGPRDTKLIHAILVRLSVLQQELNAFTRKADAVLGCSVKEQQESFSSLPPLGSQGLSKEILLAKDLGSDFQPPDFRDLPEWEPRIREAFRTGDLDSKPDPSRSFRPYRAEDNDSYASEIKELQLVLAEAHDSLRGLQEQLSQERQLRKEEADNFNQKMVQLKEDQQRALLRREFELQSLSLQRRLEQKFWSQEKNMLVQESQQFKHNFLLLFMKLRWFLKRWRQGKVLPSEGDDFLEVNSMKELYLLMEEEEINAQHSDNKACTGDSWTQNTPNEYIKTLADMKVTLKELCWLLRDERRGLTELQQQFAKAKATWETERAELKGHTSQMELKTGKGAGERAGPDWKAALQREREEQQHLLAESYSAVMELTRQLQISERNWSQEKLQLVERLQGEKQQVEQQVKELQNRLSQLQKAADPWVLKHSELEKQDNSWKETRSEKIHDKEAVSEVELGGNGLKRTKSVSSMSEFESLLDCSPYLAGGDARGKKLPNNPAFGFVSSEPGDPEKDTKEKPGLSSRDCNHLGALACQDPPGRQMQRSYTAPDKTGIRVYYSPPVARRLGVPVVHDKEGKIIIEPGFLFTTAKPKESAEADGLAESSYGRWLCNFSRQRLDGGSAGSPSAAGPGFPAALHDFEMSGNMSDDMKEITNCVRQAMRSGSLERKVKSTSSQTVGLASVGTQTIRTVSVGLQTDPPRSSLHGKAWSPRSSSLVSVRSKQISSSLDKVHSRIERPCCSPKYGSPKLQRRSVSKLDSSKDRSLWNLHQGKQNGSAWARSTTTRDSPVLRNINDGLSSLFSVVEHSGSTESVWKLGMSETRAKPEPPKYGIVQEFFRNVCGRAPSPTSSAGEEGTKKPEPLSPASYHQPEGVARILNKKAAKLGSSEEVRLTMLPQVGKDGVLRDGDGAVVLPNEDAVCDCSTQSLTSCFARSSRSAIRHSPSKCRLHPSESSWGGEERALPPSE
UniProt Q86XZ4: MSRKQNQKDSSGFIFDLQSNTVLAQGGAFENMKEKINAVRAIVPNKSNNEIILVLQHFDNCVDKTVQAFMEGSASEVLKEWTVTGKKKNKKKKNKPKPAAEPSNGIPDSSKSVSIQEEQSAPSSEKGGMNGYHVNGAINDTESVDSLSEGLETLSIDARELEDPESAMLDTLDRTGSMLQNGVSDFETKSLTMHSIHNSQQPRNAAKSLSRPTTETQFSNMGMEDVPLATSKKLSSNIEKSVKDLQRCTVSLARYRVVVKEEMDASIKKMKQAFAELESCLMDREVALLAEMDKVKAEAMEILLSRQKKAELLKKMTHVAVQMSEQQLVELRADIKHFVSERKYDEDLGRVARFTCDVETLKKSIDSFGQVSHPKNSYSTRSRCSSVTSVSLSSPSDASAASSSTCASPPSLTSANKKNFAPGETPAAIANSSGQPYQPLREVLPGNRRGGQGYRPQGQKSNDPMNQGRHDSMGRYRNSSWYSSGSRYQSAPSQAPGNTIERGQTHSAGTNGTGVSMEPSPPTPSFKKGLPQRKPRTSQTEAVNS
UniProt Q00796: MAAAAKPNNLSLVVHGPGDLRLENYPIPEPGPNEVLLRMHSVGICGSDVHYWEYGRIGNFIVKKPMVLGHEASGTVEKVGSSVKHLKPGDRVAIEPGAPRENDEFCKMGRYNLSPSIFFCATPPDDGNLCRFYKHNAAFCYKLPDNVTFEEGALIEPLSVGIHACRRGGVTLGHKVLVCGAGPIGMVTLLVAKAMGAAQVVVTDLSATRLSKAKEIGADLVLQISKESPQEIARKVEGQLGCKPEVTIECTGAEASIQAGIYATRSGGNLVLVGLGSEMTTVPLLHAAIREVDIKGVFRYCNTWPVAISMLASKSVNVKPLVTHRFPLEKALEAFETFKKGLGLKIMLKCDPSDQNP
UniProt Q9NZD8: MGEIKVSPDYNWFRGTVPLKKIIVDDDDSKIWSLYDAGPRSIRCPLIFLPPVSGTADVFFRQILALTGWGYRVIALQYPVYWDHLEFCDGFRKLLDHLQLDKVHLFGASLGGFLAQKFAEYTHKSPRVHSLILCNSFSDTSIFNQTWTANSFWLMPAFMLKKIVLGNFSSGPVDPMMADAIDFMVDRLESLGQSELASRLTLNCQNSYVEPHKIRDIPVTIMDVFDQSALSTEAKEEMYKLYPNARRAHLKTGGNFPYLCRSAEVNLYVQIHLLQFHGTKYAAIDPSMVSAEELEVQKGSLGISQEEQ
UniProt P62306, whole entry, looked up: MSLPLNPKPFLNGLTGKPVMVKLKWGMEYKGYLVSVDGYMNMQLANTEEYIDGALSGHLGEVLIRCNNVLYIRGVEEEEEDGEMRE
UniProt Q8N0X7: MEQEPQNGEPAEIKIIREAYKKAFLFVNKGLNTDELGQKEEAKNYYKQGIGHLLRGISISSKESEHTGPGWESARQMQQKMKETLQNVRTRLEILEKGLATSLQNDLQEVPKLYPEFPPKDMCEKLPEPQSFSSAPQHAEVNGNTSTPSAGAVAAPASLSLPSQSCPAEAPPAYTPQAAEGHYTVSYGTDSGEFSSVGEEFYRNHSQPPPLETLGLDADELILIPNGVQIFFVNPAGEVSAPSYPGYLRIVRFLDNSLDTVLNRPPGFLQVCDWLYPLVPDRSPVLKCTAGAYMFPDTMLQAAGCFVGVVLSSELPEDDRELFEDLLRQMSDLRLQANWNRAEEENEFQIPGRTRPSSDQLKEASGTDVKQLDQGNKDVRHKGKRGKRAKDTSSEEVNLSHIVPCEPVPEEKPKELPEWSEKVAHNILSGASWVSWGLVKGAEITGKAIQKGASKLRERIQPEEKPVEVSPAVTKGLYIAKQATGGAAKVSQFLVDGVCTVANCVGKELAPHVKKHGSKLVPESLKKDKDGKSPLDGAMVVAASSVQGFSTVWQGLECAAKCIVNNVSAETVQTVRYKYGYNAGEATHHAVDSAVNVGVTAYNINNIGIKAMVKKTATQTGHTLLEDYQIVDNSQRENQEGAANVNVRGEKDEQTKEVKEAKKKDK
UniProt Q9H930: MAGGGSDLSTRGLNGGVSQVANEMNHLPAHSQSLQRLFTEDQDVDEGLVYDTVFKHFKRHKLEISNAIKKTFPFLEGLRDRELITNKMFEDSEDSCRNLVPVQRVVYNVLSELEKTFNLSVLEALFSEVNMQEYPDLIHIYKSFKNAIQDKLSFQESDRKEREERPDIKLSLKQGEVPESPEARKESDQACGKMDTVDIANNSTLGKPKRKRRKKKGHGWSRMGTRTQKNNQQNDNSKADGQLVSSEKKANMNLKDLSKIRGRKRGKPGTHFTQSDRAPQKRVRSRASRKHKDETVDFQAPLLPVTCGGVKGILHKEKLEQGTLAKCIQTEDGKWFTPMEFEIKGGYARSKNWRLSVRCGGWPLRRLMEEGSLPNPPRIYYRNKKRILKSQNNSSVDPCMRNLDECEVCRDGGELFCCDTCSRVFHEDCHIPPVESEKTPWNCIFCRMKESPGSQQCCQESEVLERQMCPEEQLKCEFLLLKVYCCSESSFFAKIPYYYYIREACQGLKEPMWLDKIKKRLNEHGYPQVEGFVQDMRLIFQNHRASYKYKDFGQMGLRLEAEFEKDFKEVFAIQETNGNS
UniProt Q9HB58: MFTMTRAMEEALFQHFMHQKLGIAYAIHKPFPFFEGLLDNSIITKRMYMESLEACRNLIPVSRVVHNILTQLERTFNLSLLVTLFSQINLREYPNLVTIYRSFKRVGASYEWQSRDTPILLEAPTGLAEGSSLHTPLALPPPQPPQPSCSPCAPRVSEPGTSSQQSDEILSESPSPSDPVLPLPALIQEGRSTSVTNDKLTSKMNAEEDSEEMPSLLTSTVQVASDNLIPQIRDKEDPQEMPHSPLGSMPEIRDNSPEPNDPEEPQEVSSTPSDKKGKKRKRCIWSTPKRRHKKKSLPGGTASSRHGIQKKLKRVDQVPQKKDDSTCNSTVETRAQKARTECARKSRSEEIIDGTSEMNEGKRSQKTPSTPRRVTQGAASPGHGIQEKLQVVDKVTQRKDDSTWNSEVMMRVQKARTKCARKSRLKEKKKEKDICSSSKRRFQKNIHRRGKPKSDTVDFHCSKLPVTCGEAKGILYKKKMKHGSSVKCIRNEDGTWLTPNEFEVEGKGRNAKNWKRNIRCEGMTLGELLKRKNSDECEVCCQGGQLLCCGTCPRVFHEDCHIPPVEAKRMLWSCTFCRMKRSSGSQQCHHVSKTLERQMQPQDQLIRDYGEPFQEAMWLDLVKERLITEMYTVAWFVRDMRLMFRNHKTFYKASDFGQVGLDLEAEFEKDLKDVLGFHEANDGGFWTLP
UniProt P19623: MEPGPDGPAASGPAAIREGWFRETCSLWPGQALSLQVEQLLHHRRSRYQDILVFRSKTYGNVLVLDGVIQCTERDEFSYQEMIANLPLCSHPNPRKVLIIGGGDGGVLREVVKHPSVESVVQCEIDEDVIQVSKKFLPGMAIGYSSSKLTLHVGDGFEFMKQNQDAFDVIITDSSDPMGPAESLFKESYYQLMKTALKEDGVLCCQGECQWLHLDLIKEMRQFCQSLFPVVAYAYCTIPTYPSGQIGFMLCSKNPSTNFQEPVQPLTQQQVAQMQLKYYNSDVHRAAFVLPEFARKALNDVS
UniProt O60749: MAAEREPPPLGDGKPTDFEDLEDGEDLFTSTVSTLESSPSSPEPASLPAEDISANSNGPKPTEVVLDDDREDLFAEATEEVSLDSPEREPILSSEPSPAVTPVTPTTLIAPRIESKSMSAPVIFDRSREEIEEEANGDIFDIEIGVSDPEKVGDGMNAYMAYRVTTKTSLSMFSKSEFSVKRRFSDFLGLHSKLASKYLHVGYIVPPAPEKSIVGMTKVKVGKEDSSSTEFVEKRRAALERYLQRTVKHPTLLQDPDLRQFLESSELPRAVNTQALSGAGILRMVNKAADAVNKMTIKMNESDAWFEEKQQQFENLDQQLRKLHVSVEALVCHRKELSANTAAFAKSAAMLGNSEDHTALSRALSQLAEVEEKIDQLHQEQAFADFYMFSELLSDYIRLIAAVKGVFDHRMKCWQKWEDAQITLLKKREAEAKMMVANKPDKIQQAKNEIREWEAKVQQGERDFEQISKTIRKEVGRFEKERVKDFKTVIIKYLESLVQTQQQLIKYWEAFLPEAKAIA
UniProt Q96RF0: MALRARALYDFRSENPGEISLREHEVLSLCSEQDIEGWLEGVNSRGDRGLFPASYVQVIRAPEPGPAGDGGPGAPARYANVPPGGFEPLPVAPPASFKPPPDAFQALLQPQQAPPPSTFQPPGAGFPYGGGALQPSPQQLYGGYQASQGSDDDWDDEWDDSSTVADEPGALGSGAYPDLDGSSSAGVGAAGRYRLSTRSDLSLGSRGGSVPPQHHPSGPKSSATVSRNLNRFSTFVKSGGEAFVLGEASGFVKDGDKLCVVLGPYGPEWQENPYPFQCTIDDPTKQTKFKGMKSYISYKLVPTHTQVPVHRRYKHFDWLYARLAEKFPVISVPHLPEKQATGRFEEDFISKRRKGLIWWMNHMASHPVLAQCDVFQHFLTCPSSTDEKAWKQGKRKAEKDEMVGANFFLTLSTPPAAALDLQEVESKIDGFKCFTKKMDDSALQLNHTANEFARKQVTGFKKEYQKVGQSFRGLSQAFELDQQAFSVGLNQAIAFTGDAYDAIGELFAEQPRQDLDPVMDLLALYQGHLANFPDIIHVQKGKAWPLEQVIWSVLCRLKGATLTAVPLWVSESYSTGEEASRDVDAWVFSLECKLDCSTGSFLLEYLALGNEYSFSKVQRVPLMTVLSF

This is one part of the list.
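Also: competitive chemoproteomic profiling in live THP-1 cells with an iodoacetamide desthiobiotin (IA-DTB) probe, comparing probe-labelled peptide intensities in compound-treated cells against DMSO-treated controls.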

As to “SOGA1_O94964_984_DCNHLGALACQDPPGR (UniProt O94964)”, the “probe-labelled cysteine peptide fold change” value is 0.113 (10 µM) and -0.189 (50 µM).

In the case of “SPATS2_Q86XZ4_61_SNNEIILVLQHFDNCVDK (UniProt Q86XZ4)”, the “probe-labelled cysteine peptide fold change” value runs as follows: (10 µM) -0.157; (50 µM) -0.218.

On to “SORD_Q00796_165_LPDNVTFEEGALIEPLSVGIHACR (UniProt Q00796)”, for which the “probe-labelled cysteine peptide fold change” value by setting is: (10 µM) -0.0397; (50 µM) -0.259.

Turning to “SOS1_Q07889_838_CIVETENLEER (UniProt Q07889)”, the “probe-labelled cysteine peptide fold change” value reads like this: (10 µM) 0.179; (50 µM) 0.163.

As for “SPG21_Q9NZD8_204_LTLNCQNSYVEPHK (UniProt Q9NZD8)”, the “probe-labelled cysteine peptide fold change” value reads like this: (10 µM) -0.11; (50 µM) -0.0338.

In the case of “SOGA1_O94964_1113_EITNCVR (UniProt O94964)”, the “probe-labelled cysteine peptide fold change” value reads like this: (10 µM) -0.0643; (50 µM) 0.0743.

“SNRPF_P62306_66_CNNVLYIR (UniProt P62306)”: the “probe-labelled cysteine peptide fold change” value is, setting by setting: (10 µM) 0.0532; (50 µM) 0.0213.

For “SPART_Q8N0X7_504_VSQFLVDGVCTVANCVGK (UniProt Q8N0X7)”, the “probe-labelled cysteine peptide fold change” value is, setting by setting: (10 µM) 0.0256; (50 µM) 0.0184.

For the target “SPG7_Q9UQ90_353_GALLLGPPGCGK (UniProt Q9UQ90)”, the “probe-labelled cysteine peptide fold change” value (10 µM) worked out at 0.0394 and the “probe-labelled cysteine peptide fold change” value (50 µM) was -0.00155.

With “SP140L_Q9H930_191_KESDQACGK (UniProt Q9H930)”, the “probe-labelled cysteine peptide fold change” value is, setting by setting: (10 µM) -0.121; (50 µM) -0.23.

Take “SP110_Q9HB58_468_LPVTCGEAK (UniProt Q9HB58)”: the “probe-labelled cysteine peptide fold change” value is -0.149 (10 µM) and -0.181 (50 µM).

Turning to “SRM_P19623_25_ETCSLWPGQALSLQVEQLLHHRR (UniProt P19623)”, the “probe-labelled cysteine peptide fold change” value (10 µM) was -0.145 and the “probe-labelled cysteine peptide fold change” value (50 µM) is -0.0529.

Take “SNX2_O60749_332_LHVSVEALVCHR (UniProt O60749)”: the “probe-labelled cysteine peptide fold change” value reads like this: (10 µM) 0.0656; (50 µM) -0.105.

On to “SNX18_Q96RF0-2_570_CNTISFATLAEIHHFHQIR (UniProt Q96RF0)”, for which the “probe-labelled cysteine peptide fold change” value is, setting by setting: (10 µM) 0.155; (50 µM) 0.111.

These data come from the supplement of paper PMC12067093, “Discovery and optimisation of a covalent ligand for TRIM25 and its application to targeted protein ubiquitination” (Chemical Science, 2025).
